The results in this text go back to doi:10.1101/2023.07.23.23292673.

Protein sequences, listed by entry. Tags and fused reporters are not part of them. Residues count along the entry.
UniProt P35968, residues 20-1356: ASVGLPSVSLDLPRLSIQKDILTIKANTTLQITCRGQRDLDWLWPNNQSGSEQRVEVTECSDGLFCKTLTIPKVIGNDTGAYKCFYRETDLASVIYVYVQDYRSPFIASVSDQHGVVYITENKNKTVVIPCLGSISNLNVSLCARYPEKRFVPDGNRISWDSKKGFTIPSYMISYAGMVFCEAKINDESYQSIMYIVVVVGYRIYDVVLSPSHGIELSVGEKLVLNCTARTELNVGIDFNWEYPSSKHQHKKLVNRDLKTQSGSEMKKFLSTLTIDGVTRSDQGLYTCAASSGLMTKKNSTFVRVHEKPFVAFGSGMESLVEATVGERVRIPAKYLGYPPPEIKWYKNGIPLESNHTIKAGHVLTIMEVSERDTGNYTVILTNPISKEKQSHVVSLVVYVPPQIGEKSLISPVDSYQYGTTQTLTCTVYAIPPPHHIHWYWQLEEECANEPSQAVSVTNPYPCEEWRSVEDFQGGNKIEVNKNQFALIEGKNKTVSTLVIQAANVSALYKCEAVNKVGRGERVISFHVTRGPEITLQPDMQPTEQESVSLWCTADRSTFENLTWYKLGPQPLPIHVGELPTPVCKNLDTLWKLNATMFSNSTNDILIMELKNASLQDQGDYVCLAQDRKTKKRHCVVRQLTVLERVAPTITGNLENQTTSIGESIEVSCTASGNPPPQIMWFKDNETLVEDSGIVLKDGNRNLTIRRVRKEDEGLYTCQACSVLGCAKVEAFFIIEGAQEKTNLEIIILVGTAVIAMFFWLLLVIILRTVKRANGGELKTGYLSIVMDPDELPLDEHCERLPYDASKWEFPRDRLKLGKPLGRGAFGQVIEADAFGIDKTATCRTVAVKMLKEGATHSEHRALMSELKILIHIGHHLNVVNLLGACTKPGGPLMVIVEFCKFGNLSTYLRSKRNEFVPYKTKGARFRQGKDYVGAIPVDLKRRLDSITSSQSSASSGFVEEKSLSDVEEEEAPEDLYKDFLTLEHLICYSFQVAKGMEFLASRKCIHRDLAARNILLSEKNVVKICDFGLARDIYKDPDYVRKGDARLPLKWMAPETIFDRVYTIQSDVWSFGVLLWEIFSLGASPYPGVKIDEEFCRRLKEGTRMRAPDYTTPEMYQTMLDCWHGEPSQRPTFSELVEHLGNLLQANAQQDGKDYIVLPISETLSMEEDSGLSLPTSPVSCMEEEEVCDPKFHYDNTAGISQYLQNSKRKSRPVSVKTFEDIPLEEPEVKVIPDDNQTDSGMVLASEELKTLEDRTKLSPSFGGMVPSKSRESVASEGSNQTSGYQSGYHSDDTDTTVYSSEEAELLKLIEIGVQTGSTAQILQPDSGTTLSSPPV
UniProt P37288: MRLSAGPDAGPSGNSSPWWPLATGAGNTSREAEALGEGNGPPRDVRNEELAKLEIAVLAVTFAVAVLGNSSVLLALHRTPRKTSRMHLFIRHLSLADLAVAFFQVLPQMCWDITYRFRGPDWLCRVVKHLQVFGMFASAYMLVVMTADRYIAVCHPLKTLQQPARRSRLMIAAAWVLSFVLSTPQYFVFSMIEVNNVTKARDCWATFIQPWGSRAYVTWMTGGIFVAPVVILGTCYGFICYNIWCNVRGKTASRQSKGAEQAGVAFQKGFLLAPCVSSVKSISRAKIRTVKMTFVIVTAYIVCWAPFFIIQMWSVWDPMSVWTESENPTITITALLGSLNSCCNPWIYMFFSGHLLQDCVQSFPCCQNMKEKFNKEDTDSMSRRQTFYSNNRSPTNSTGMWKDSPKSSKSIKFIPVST
UniProt P30559: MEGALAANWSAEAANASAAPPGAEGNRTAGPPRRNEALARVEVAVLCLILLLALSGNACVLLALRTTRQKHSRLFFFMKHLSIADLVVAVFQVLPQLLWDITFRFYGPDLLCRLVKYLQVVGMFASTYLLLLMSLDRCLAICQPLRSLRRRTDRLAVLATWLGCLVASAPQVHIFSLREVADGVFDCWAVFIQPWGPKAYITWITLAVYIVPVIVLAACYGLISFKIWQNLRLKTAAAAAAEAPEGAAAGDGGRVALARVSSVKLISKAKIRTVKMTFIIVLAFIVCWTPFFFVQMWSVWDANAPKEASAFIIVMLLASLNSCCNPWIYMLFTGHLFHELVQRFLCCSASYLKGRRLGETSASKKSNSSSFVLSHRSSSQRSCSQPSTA

Results are given in words; binding and its absence hold for the method and conditions named. In cells and extracts the contact can be indirect. Some binding calls cover weakened binding; strength is not graded here.

What all share (assay): co-IP
For test [1], the target named is T1, MDMX (Double minute 4 protein) (human (endogenous in placental chorionic villi)) (UniProt O15151).
T1 sequence: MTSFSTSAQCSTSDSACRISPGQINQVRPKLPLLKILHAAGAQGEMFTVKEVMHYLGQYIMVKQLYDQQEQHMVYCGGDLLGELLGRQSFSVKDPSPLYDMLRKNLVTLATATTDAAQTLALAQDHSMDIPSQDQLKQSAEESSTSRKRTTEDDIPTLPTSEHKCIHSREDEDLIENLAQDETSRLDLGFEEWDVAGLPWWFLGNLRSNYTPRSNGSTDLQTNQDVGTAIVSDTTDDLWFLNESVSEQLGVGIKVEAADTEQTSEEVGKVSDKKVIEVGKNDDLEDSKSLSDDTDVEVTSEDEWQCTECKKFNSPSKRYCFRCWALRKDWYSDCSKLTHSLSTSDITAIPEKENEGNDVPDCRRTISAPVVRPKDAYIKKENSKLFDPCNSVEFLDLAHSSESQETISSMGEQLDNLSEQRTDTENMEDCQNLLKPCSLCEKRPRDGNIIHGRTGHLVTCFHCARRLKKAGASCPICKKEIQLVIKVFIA

For test [2], the target named is T2, PICALM (Phosphatidylinositol-binding clathrin assembly protein) (human (endogenous in placental chorionic villi)) (UniProt Q13492).
T2 sequence: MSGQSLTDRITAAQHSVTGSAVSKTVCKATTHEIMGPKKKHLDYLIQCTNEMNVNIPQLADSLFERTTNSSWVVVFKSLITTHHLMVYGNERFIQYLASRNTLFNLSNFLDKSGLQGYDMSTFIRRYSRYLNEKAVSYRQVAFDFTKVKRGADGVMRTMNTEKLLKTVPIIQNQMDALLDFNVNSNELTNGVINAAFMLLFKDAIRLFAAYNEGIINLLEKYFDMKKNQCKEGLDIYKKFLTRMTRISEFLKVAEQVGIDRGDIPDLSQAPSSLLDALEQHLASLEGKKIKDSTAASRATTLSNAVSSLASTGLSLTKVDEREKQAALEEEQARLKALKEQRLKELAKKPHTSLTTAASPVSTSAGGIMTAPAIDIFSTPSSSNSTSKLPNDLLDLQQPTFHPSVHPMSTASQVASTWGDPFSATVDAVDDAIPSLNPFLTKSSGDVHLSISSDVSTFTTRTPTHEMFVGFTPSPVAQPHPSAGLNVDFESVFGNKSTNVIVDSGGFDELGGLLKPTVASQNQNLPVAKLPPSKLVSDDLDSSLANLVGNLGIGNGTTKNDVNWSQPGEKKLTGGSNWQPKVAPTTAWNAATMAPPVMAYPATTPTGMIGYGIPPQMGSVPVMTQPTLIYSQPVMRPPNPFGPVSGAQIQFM

Test [3] addresses VEGFR2 (human (endogenous in placental chorionic villi)) (UniProt P35968).

With “vasopressin V1aR receptor (from UniProt P37288 1-418)”, the binding entry in test [1] was “binds”; in test [2], “binds”; in test [3], “no binding”.
“oxytocin receptor (OT-R) (from UniProt P30559 1-389)”: the binding result was “binds” in test [1], “binds” in test [2] and “no binding” in test [3].

B1: MDMX (Double minute 4 protein) (protein, UniProt O15151 1-490)
chain: MTSFSTSAQCSTSDSACRISPGQINQVRPKLPLLKILHAAGAQGEMFTVKEVMHYLGQYIMVKQLYDQQEQHMVYCGGDLLGELLGRQSFSVKDPSPLYDMLRKNLVTLATATTDAAQTLALAQDHSMDIPSQDQLKQSAEESSTSRKRTTEDDIPTLPTSEHKCIHSREDEDLIENLAQDETSRLDLGFEEWDVAGLPWWFLGNLRSNYTPRSNGSTDLQTNQDVGTAIVSDTTDDLWFLNESVSEQLGVGIKVEAADTEQTSEEVGKVSDKKVIEVGKNDDLEDSKSLSDDTDVEVTSEDEWQCTECKKFNSPSKRYCFRCWALRKDWYSDCSKLTHSLSTSDITAIPEKENEGNDVPDCRRTISAPVVRPKDAYIKKENSKLFDPCNSVEFLDLAHSSESQETISSMGEQLDNLSEQRTDTENMEDCQNLLKPCSLCEKRPRDGNIIHGRTGHLVTCFHCARRLKKAGASCPICKKEIQLVIKVFIA
Regarding B1, the binding entry in test [3] is given as “binds”.
